# Screening data, single-dose tests

Amino acid sequences for entries named in this document (tags omitted).
UniProt I6X8D2, whole entry: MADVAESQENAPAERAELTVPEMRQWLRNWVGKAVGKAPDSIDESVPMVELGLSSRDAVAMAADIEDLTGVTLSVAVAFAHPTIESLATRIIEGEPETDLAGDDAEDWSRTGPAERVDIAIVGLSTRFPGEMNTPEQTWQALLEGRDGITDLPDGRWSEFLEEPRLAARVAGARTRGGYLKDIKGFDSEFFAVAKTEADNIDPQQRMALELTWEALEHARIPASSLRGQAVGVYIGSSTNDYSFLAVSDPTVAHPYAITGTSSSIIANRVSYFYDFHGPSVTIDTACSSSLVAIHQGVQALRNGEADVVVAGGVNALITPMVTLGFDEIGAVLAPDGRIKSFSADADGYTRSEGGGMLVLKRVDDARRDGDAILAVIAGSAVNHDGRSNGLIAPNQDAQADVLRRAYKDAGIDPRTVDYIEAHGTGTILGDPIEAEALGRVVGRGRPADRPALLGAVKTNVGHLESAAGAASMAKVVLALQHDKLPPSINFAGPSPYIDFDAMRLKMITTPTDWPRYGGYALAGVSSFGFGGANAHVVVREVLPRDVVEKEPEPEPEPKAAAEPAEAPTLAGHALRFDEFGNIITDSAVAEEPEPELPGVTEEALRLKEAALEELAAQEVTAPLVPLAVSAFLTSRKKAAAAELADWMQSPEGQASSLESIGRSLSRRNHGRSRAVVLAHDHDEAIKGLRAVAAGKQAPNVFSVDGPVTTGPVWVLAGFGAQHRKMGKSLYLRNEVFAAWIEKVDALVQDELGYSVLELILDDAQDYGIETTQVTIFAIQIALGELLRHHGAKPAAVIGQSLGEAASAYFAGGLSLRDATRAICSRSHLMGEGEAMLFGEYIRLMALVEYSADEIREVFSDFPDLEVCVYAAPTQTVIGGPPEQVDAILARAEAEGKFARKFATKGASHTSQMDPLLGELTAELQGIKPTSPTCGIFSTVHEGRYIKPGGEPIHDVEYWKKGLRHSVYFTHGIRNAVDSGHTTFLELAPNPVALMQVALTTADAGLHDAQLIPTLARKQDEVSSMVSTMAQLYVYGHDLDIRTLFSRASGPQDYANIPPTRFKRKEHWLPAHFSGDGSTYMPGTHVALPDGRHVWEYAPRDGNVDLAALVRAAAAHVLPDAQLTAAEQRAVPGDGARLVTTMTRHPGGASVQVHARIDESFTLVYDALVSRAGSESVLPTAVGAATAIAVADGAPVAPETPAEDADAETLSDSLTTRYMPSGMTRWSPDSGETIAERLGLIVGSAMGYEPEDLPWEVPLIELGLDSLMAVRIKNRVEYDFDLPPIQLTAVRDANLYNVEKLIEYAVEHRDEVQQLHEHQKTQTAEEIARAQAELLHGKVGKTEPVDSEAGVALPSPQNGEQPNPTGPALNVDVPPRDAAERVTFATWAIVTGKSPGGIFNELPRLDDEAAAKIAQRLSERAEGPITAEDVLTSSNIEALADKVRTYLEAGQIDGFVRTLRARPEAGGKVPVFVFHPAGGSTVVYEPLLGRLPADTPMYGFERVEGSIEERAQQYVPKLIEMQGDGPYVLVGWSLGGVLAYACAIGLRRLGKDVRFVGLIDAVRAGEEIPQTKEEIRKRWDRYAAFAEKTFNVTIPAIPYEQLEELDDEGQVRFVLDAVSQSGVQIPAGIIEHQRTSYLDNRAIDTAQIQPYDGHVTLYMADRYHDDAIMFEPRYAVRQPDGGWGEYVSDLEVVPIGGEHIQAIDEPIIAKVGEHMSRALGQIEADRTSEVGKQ

From ChEMBL document CHEMBL3988442, “University of Dundee, Small-Polar-MMV Screening Library” (2021).

The filed quantity is “Percent Effect” (%). How 0% and 100% were set is not recorded. Most values in the screen are low, and negative values occur. This is an unselected part of the compounds tested.

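Polyketide synthase Pks13, Mycobacterium tuberculosis (UniProt I6X8D2). Enzyme assay of the thioesterase domain of polyketide synthase 13; the read-out is not stated. Tested at 30 µM. The record gives no direction; the compounds picked for IC50 retests had high values, so higher reads as stronger inhibition. About 67,000 compounds were tested under these conditions; 0.46% (about 300) showed 50% or more at least once.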

compound,Percent Effect
O=c1cc(CN2CCC(CCc3ccc(O)cc3)CC2)[nH]c(=O)[nH]1,-27.91%
COc1ccc(CC(=O)NCC(O)c2sccc2C)cc1OC (stereo not given),-15.88%
Cc1cc(CN2CCc3nn(C)c(=O)cc3C2)on1,5.8%
O=C(CC1CC1)N1CCN(Cc2ccncc2)c2ncccc2C1,-19.21%
CN1CC(=O)N(c2cccnc2)CC12CCN(C(=O)c1cccnc1)C2 (stereo not given),4.993%
O=C(Cn1cccn1)N1CCc2[nH]nc(-c3ccc4c(c3)OCO4)c2C1,-11.3%
COc1ncccc1CNC(=O)NCc1ccco1,0.5812%
CN(C(=O)OC(C)(C)C)C1CCN(C(=O)c2cc(Cl)c[nH]2)C1 (stereo not given),4.684%
COC[C@]1(O)CCN(C(=O)c2cccc(CN(C)C)c2)CC1(C)C,-14.21%
Cc1ccc(C)c(OC2CCN(C(=O)c3ccc(C)[nH]c3=O)CC2)c1,1.33%
Cc1cccnc1NC(=O)c1ccc(-n2cncn2)nn1,23.89%
CNC(=O)CCN(C)c1nc(-c2ccncc2)nc2c1CCNC2,-39.1%
CCN(CC)S(=O)(=O)N1CC[C@H](c2ccccc2)[C@H]2NCCCC[C@H]21,4.009%
CCn1c(CN(C)CC(F)(F)F)nc2c(F)cccc21,-7.195%
CCOC(=O)CCn1cnc2onc(-c3cc(OC)ccc3Cl)c2c1=O,13.35%
Cc1cc(C)c(C(=O)N2CCCC(C(=O)CCc3ccccc3)C2)cn1 (stereo not given),4.016%
COCC(C)N(C)C(=O)NC1CCN(S(C)(=O)=O)CC1 (stereo not given),-14.64%
Cc1ccc(-c2noc(CN3CC(n4cc(C)cn4)C3)n2)cc1,16.61%
CN(Cc1cc2n(n1)CCNC2)Cc1cc(-c2ccccn2)no1,-31.13%
CN(C)CCCn1ccc(-c2cccc(-c3ccccn3)c2)n1,5.455%
O=C(O)c1ccccc1-c1ccc(CN2CCOCC2)cn1,5.921%
Cc1cccc2c1cnn2CCCNC(=O)c1ccnn1C,-26.89%
Cc1cc(C(=O)N[C@H]2CC[C@@]3(CCC(=O)N3C)CC2)no1,-33.64%
Cc1ccc(CN(CC(=O)NC2CCOCC2)c2ccc(F)cc2)o1,-10.5%
O=C(C1CCS(=O)(=O)CC1)N1CCC(Cc2ccc(F)cc2)CC1,17.01%
CCN1CC[C@@]2(C(=O)N3CCOCC3)CCN(C(=O)C(C)C)CC[C@@H]12,-53.17%
Cc1cccc(N2CCN(CCC(=O)NCc3cnc(C)cn3)CC2)c1,-3.728%
Cc1ccccc1N1CCCN(C(=O)CC2CN(C(C)C)CCO2)CC1 (stereo not given),-12.38%
COC(=O)COc1nc(CC(C)C)c2c(c1C#N)CCCC2,-11.28%
CC(C)(C)c1cc(NC(=O)CN(Cc2ccco2)Cc2cccs2)on1,2.59%
CC(C)(C)NC(=O)C1CSCN1S(=O)(=O)c1ccccc1F (stereo not given),-4.128%
N#Cc1cccnc1N1CCC(OCCc2ccccc2)CC1,48.41%
COCC(=O)N1CCC(C(=O)Nc2ccc(C(C)=O)cc2)CC1,5.466%
CC(=O)NCC(Cc1cccc(F)c1)n1cccc1 (stereo not given),-32.49%
Cc1ncoc1C(=O)N1CCOC(Cc2ccccc2)C1 (stereo not given),-12%
CC(NC(=O)N1CCS(=O)(=O)CC1)c1c(F)cccc1Cl (stereo not given),-3.661%
CC(CN(C)Cc1cccc(-n2cccn2)c1)C(F)(F)F (stereo not given),24.84%
CC(=O)N(C)C1CCCc2nc(C)sc21 (stereo not given),-14.46%
CN(C)c1ncc(-c2cc(C(=O)N3CCCC3)n(CC3CC3)c2)cn1,7.069%
CN1CCc2c(sc3c2C(=O)NC(/C=C/c2ccccc2)N3)C1 (stereo not given),33.3%
CN1CCN(C(=O)C2CN(Cc3cc4ccccc4o3)CCN2)CC1 (stereo not given),4.297%
CNS(=O)(=O)CCCN1CCCC1c1noc(C)n1 (stereo not given),1.507%
CCC1C(=O)NCCN1c1cc(C)ncn1 (stereo not given),4.146%
Cn1ccnc1CN1CCC2(CC1)CCN(c1ccccc1)C2=O,-26%
CNC(=O)CCCNCc1c(C)nn(CC(C)C)c1N(C)C,0.386%
OC1(CNc2cc(C(F)(F)F)nc3ccccc23)CCOCC1,-19.7%
COc1ccc(-c2nc(CNC(C)Cn3cccn3)cs2)cc1 (stereo not given),-4.128%
N#Cc1cccc(N2CCCC3(CN(C(=O)c4ccc[nH]4)CCO3)C2)c1 (stereo not given),-40.21%
CSc1ccc(CN2C[C@@H]3CC[C@@](O)(c4ccc(C)cn4)[C@@H]3C2)cc1,-6.331%
O=C(c1cncnc1)N1CCCC(c2nccs2)C1 (stereo not given),-8.092%
CC1CCCN(C(=O)c2cccc(CS(C)(=O)=O)c2)C1 (stereo not given),-11.57%
CC(C)(C)OC(=O)N1CCCc2ccc(NCc3ncc[nH]3)cc21,-12.41%
CC1CCCN(Cc2ccnc(-c3cccnc3)n2)C1 (stereo not given),-8.825%
Cn1cc(C(=O)N2CC[C@@H]3[C@@H]2CCN3Cc2cccc(F)c2)cn1,-22.65%
CC(C)c1ccc(O)c(C(=O)NC2CCN(c3ncccn3)CC2)c1,-31.88%
CCCc1n[nH]c(C2CN(C(=O)C3=COCCC3)CCO2)n1 (stereo not given),-6.35%
COc1ccc(NC2(C(=O)N3CCn4cncc4C3)CCCC2)cc1,-2.176%
N#Cc1cn(CCCN2CCc3ccccc3C2)c(=O)[nH]c1=O,-7.541%
O[C@@H]1C[C@@H](c2nc(Cc3ccccc3)no2)N(Cc2ccc(F)cc2)C1,-28.14%
O=C(O)c1cccc(N2C[C@H](NC(=O)C3CCOCC3)[C@@H](C3CC3)C2)n1,-17.32%
CN1CCN(C2CCN(c3cnc4ccccc4n3)CC2)C1=O,-6.342%
Clc1ccccc1OC1CN(CC2CCOC2)C1 (stereo not given),-3.104%
CN(Cc1ccco1)C[C@H]1OC[C@@H]2CN(c3ncc(F)cn3)CC[C@@H]21,12.22%
COC(=O)c1ccc(Cn2cnc(C#N)n2)cc1,-16.48%
COc1nc(C)cc(C)c1CNC(=O)N(C)Cc1cnn(C)c1,-8.422%
COc1ccc2c(c1)OCC(Cc1cncc(N)c1)C2 (stereo not given),5.582%
Cc1n[nH]c(C)c1CC(=O)N1CCN(C)C2(CCNC(=O)CC2)C1 (stereo not given),-36.89%
CC(C)COC1CCN(C(=O)c2cc3ccccc3c(=O)[nH]2)CC1,11.38%
O=C(c1cscn1)N1C[C@H]2CCC[C@@]2(COCc2ccccn2)C1,9.221%
Cc1cnn(CC2CCCN2CC(=O)N(C)CCC#N)c1 (stereo not given),-1.191%
Cc1ccc(-c2noc(CCC(=O)NC(C)Cn3cccn3)n2)cc1 (stereo not given),-7.46%
Cc1ccc(-c2cc(C(=O)NCCCc3csc(N)n3)[nH]n2)s1,57.75%
Cc1ccsc1CN1CCC(c2nnc(Cn3cccn3)n2C)CC1,-4.926%
CCOc1ccc(-c2nc(C(=O)NCC3CCOC3)cs2)cc1 (stereo not given),21.88%
CS(=O)(=O)C1(CNCc2cccc(-n3cccn3)c2)CCOCC1,9.937%
Cc1nc(C(=O)N(C)CC2CCCO2)nn1-c1ccccc1C(C)C (stereo not given),-4.307%
O=C(CCCn1cncn1)N1CCC2(CCCN(C3CCCC3)C2=O)C1 (stereo not given),-13.13%
CC1CCN(C)c2ccccc2N1C(=O)c1ccn(C)c(=O)c1 (stereo not given),-29.03%
O=C(Nc1nnc(N2CCCCC2)[nH]1)c1cccs1,-15.32%
CN(C)CC(=O)N1CCC2(CC1)CN(c1ncccn1)CCO2,15.54%
COc1ccc(CC(=O)Nc2ccc3ncn(C(C)C)c(=O)c3c2)cc1,3.304%
CCOC(=O)N1CCN(C(=O)c2sc(-c3ccncc3)nc2C)CC1,-15.7%
Cc1ccc(C)c(S(=O)(=O)CCNC2CCc3ncnn3C2)c1 (stereo not given),-19.26%
NC(=O)Cn1c(CO)cnc1SCc1ccccc1Cl,-21.88%
CCN(CC)S(=O)(=O)N1CCCC(c2nccn2Cc2ccncc2)C1 (stereo not given),9.51%
CCn1nc(C)c(NC(=O)c2nnn(Cc3ccccc3)c2OC)c1C,-2.101%
CCOc1ccccc1CNS(=O)(=O)c1ccc2c(c1)CCCC(=O)N2,-9.001%
C[C@H]1C[C@H]2CN(C(=O)c3cccc4c3OCCO4)CC[C@H]2O1,25.15%
O=C(c1coc2ccccc12)N1CCCC1,-18.8%
O=C(O)C1(Cc2ccc(-c3cccs3)cc2)CCNC1 (stereo not given),2.767%
Cc1cn([C@H]2CCNC[C@]2(C)O)c(=O)[nH]c1=O,-33.52%
CCCOc1ccc(C(=O)Oc2cc(=O)n3cccc(C)c3n2)cc1,13.29%

11 of the entries, repeated:

{"compound": "CC(C)COC1CCN(C(=O)c2cc3ccccc3c(=O)[nH]2)CC1", "Percent Effect": 11.38}
{"compound": "CCOc1ccccc1CNS(=O)(=O)c1ccc2c(c1)CCCC(=O)N2", "Percent Effect": -9.001}
{"compound": "O=C(CC1CC1)N1CCN(Cc2ccncc2)c2ncccc2C1", "Percent Effect": -19.21}
{"compound": "COc1ccc(CC(=O)NCC(O)c2sccc2C)cc1OC", "stereo": "stereo not given", "Percent Effect": -15.88}
{"compound": "CNC(=O)CCN(C)c1nc(-c2ccncc2)nc2c1CCNC2", "Percent Effect": -39.1}
{"compound": "O=C(c1coc2ccccc12)N1CCCC1", "Percent Effect": -18.8}
{"compound": "OC1(CNc2cc(C(F)(F)F)nc3ccccc23)CCOCC1", "Percent Effect": -19.7}
{"compound": "CN(C)CCCn1ccc(-c2cccc(-c3ccccn3)c2)n1", "Percent Effect": 5.455}
{"compound": "Cc1cc(C(=O)N[C@H]2CC[C@@]3(CCC(=O)N3C)CC2)no1", "Percent Effect": -33.64}
{"compound": "CN(C)CC(=O)N1CCC2(CC1)CN(c1ncccn1)CCO2", "Percent Effect": 15.54}
{"compound": "CSc1ccc(CN2C[C@@H]3CC[C@@](O)(c4ccc(C)cn4)[C@@H]3C2)cc1", "Percent Effect": -6.331}